Patent US8431589B2, “2,4-diaminopyrimidine derivatives” (Novartis AG, priority 2002, dated 2013)
Some entries share one result that the patent states for a list of compounds.

Amino acid sequences for entries named in this document (tags omitted). Residues count along the entry.
UniProt Q05397, 384-706: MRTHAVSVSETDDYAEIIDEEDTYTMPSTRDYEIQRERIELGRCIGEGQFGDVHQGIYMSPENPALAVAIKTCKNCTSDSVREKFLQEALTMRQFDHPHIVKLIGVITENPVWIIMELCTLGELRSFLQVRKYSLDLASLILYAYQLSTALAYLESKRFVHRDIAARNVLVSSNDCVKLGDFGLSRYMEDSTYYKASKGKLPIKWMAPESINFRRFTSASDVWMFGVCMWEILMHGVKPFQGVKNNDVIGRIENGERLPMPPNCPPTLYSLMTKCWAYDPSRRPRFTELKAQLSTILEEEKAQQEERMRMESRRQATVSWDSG

Target: T1, recombinant hexahistidine-tagged human FAK kinase domain (Homo sapiens, UniProt Q05397)
T1 construct: the kinase domain of FAK (Met384-Gly706) from position 29 to 351; made in house; host or cells: baculovirus; Sf9 and ExpresSF+ insect cells
Test: FAK assay (FRET, Biot-Y397 substrate)
Type: biochemical

CNS(=O)(=O)c1ccccc1Nc1nc(Nc2ccc3cn[nH]c3c2)ncc1Br [Example 198]
FAK inhibitor (statement in words): Representative FAK inhibitors
